Test results reported in PMC5017680, “treA Codifies for a Trehalase with Involvement in Xanthomonas citri subsp. citri Pathogenicity” (PLoS ONE, 2016).
No constants are given. Whether binding was seen depends on the method and setting.

Target: Xanthomonas citri subsp. citri periplasmic trehalase (TreA), recombinant (Xanthomonas citri subsp. citri (strain 306)) (UniProt Q8PPT1)
Test: SEC; Superdex 200 10/300 GL, 25 mM Tris-HCl pH 8.0, 50 mM NaCl, 0.5 mL/min, absorbance at 280 nm; elution compared with a calibration curve, modelled as monomer or dimer; both purified

B1: Xanthomonas citri subsp. citri periplasmic trehalase (TreA), recombinant (enzyme, UniProt Q8PPT1 40-568)
chain: APLDAPVVNAPAPTPPTPDLAYPELFQAVQRGELFDDQKHFVDFLPLRDPALINADYLAQHDHPGFDLRKFVDANFEESPPVQTDAIRQDTALREHIDLLWPKLVRSQNHVPPHSSLLALPHPYVVPGGRFREVYYWDSYFTMLGLVKSGETTLSRQMLDNFAYLIDTYGHIPNGNRTYYLSRSQPPFFSYMVELQAGVEGEAVYQRYLPQLQKEYAYWMQGSDDLQPGQAARHVVRLADGSVLNRYWDERDTPRPEAWLHDTRTAAEVTDRPAAEVYRDLRAGAESGWDYTSRWLADGQNLRTIRTTAILPIDLNSLLYHLERTLALACAQPGAECTRDYAALAQQRKQAIDAHLWNTAGYYADYDWQTRTLSNQVTAAALYPLFAGLASDDHAKRTASTVRKTLLRPGGLATTAVKTGQQWDEPNGWAPLQWVAVDGLRRYGEDALARTIGERFLAQVQALFAREHKLVEKYGLETDAAGGGGGEYALQDGFGWTNGVTLMLLNLYPGKDTKAAPAKRVRKPEAAAR
- binding: no binding
